Data from PubChem BioAssay AID2685 (National Center for Advancing Translational Sciences (NCATS), 2010).
This is one part of the list. The main result of the screen is listed elsewhere. These columns were measured beside it and carry no call. The list favours compounds with an active or inconclusive main result. The note in brackets gives the kind of curve behind each potency; many fits are weak.

Assay: qHTS Assay for Lipid Storage Modulators in Drosophila S3 Cells;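 on cell number change: cells counted by Cell Tracker Red CMTPX staining in the red channel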
Details: BODIPY lipid droplet fluorescence, 18-24 h; for cell number change: measured here: cell count max response, cells fed with added oleic acid
Method in brief: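 Laser-scanning cytometry quantifies lipid droplet accumulation (500–530 nm total intensity; droplet/cell object ratio) in oleic acid-fed (400 uM added) Drosophila S3 cells treated with a concentration series. 20 uM Triacsin C defined 100% inhibition.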

[1] = measured here: cell number channel AC50, cells fed with added oleic acid
[2] = measured here: lipid fluorescence (Fed channel) AC50, cells fed with added oleic acid

Structure (SMILES)	cell number change [%]	AC50 [1]	AC50 [2]
COc1cc(C(=O)NCc2nc(C)cs2)ccc1OC1CCN(C(C)=O)CC1	4.62	–	–
CCC(=O)NC(=S)Nc1ccc2oc(-c3ccc(OC)cc3)nc2c1	32.4	29.1 µM [rising, single point]	29.1 µM [rising, single point]
CC(C)N1CCc2c(sc(NC(=O)CCS(=O)(=O)c3ccccc3)c2C(N)=O)C1	12.7	–	15.8 µM [rising, single point]
O=Cc1ccc(O)cc1O	11.6	–	–
Cc1ccc(C)c(OCCCC(C)(C)C(=O)O)c1	2.46	–	6.51 µM [falling, single point]
O=C(c1ccc(Br)o1)N1N=C(c2ccc(Cl)cc2)CC1c1ccco1 (centres undefined)	78.4	23.1 µM [rising, single point]	6.51 µM [rising, partial curve]
O=C(CCc1nc2ccccc2c(=O)[nH]1)NCc1ccco1	-14.3	–	0.00461 µM [falling, full curve, poor fit]
CCc1ccc(N2CC(C(=O)Nc3nc4ccc(S(C)(=O)=O)cc4s3)CC2=O)cc1 (centres undefined)	–	–	3.98 µM [falling, partial curve]
COc1ccc(C2CC(=O)c3cnc(NC(=O)c4ccccc4)nc3C2)c(OC)c1 (centres undefined)	-10.8	–	0.116 µM [rising, full curve]
Cc1ccc(S(=O)(=O)CCC(=O)c2ccc(F)cc2)cc1	-0.244	–	–
C=C(C)C1CC=C(C)/C(=N/NC(=O)c2ccccc2[N+](=O)[O-])C1 (centres undefined)	21.1	–	–
Cc1ccc(S(=O)(=O)N2CCN(CC(=O)NC3CCCc4ccccc43)CC2)cc1C (centres undefined)	33.4	3.26 µM [rising, partial curve, poor fit]	0.116 µM [rising, full curve, poor fit]
COc1nc(N/N=C/c2ccccc2F)nc(N2CCCCC2)n1	–	–	0.58 µM [falling, single point]
Oc1ccccc1-c1nc(NC2CCCC2)c2ccccc2n1	1.11	–	–
Cc1cc(C)nc(Nc2n[nH]c(COc3ccc(Cl)cc3)n2)n1	1.71	0.0731 µM [rising, full curve, poor fit]	0.0651 µM [rising, full curve, poor fit]
Nc1c(C(=O)NC2CCCC2)c2nc3ccccc3nc2n1N	-38.5	11.6 µM [falling, partial curve, poor fit]	0.259 µM [rising, full curve, poor fit]
COc1ccc(Cc2nnc(NC(=O)C3CC(=O)N(c4ccccc4C)C3)s2)cc1OC (centres undefined)	3.23	–	–
CCOc1ccc(NC(=S)N2CCN(S(C)(=O)=O)CC2)cc1	14	–	–
COc1ccccc1NS(=O)(=O)c1ccc(O)c(C(=O)OCC(=O)N2c3ccccc3CC2C)c1 (centres undefined)	33.7	–	16.4 µM [rising, partial curve, poor fit]

Structure (SMILES)	cell number change [%]	AC50 [1]	AC50 [2]
Cc1ccc(Nc2nc(-c3ccc(O)c(O)c3)cs2)nc1	-24.5	–	29.1 µM [falling, single point]
Cc1ccc(NC(=O)c2ccccc2NS(=O)(=O)c2ccc(F)cc2)cc1S(=O)(=O)N1CCCCC1	-31.2	32.6 µM [falling, single point]	–
CCOCc1nnc(NC(=O)CS(=O)(=O)c2ccc(C)cc2)s1	-2.86	–	6.51 µM [rising, single point]
O=C1C(=O)N(c2ccccn2)C(c2ccc(F)cc2)/C1=C(/O)c1ccc(Br)cc1 (centres undefined)	11.7	–	29.1 µM [falling, single point]
O=c1[nH]c(/C=C/c2cccnc2)c([N+](=O)[O-])c(=O)[nH]1	-54	20.6 µM [falling, partial curve]	20.6 µM [falling, partial curve, poor fit]
O=C(CCCN1C(=O)C(c2ccccc2)Oc2cccnc21)NCc1ccc(F)cc1 (centres undefined)	-23.6	–	–
Cc1ccc(S(=O)(=O)N2CCOCC2)cc1C(=O)OC(C)C(=O)NC1CCCC1 (centres undefined)	14.4	–	3.26 µM [rising, single point]
COc1ccccc1N1CCN(/N=C/C=C\c2ccccc2[N+](=O)[O-])CC1	-49.9	18.4 µM [falling, partial curve, poor fit]	–
O=C(CNC(=O)c1ccccc1)OCC(=O)N1N=C(c2ccc(Cl)cc2)CC1c1ccco1 (centres undefined)	-10.3	0.00461 µM [rising, full curve, poor fit]	0.116 µM [rising, full curve, poor fit]
CCN(CC(=O)Nc1cccc(S(=O)(=O)N(C)c2ccccc2)c1)Cc1ccccc1	-0.501	–	2.06 µM [falling, partial curve]
COc1ccc(N(CC(=O)N2CCN(c3cccc(Cl)c3)CC2)S(=O)(=O)c2c(C)noc2C)cc1	-10.4	–	29.1 µM [rising, single point]
O=C(COc1ccccc1)N1CCN(S(=O)(=O)c2cccs2)CC1	25.7	–	14.6 µM [rising, single point]
COc1ccc(NC(=O)c2cccc(-c3ccc(O)cc3)c2)cn1	12.1	–	32.6 µM [falling, single point]
COc1ccc(S(=O)(=O)N[C@H](C(=O)N2CC[C@@]3(O)CCCC[C@H]3C2)c2ccccc2)cc1	-17.3	–	6.51 µM [falling, single point]
Cc1ccc(CN(CC(=O)NCc2ccc3c(c2)OCO3)C(=O)c2csnn2)cc1	11.2	–	18.4 µM [rising, partial curve, poor fit]
Cc1ccc(NC(=O)C2CCN(S(=O)(=O)c3ccc4c(c3)oc(=O)n4C)CC2)cc1	59.7	29.1 µM [rising, single point]	16.4 µM [rising, single point]
COc1ccc(Br)cc1C(=O)Nc1cccc(C)c1	6.24	6.51 µM [rising, single point]	0.0092 µM [rising, full curve, poor fit]
CN(C(=O)C1CCOC1)c1nnc(-c2ccccn2)s1 (centres undefined)	4.03	0.231 µM [falling, full curve]	0.461 µM [falling, full curve]
